Article PMC10485894, “Corticosteroids as Selective and Effective Modulators of Glycine Receptors” (ACS Chemical Neuroscience, 2023)

Key:
glycine receptors (GlyR) = assay: Glycine-activated chloride current (IGly), whole-cell patch clamp in isolated hippocampal pyramidal neurons; details: 100 μM glycine; for Ipeak Hill coefficient: peak amplitude of IGly; for τdes Hill coefficient: time constant of desensitization of IGly;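 as to all read-outs here: rat CA3 hippocampal pyramidal cells, whole-cell voltage clamp held at −70 mV, steroids tested over 0.01–100 µM, 6–8 cells from 3 animals per mean value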
[1] = system: GABA-A receptors (GABAAR); assay: GABA-activated chloride current (IGABA), whole-cell patch clamp in isolated cerebellar Purkinje cells; details: 2 μM GABA

Structure (SMILES)	Ipeak Hill coefficient (glycine receptors (GlyR))	τdes Hill coefficient (glycine receptors (GlyR))	Hill coefficient for potentiation of IGABA [1]	normalized charge (Q) of IGly, Hill coefficient (glycine receptors (GlyR))
C[C@]12CC[C@@H](O)C[C@@H]1CC[C@@H]1[C@@H]2[C@@H](O)C[C@]2(C)[C@@H](C(=O)CO)CC[C@@H]12 [3α5α-CORT, 3α,11β,21-Trihydroxy-5α-pregnan-20-one]	0.8 ± 0.2	0.9 ± 0.3	1.3 ± 0.4	
C[C@]12CC[C@@H](O)C[C@H]1CC[C@@H]1[C@@H]2[C@@H](O)C[C@]2(C)[C@@H](C(=O)CO)CC[C@@H]12 [3α5β-CORT, 3α,11β,21-Trihydroxy-5β-pregnan-20-one]	1.3 ± 0.3	1.3 ± 0.5	1.4 ± 0.6	
C[C@]12CCC(=O)C[C@@H]1CC[C@@H]1[C@@H]2CC[C@]2(C)[C@@H](C(=O)CO)CC[C@@H]12 [5α-CORT, 21-Hydroxy-5α-pregnane-3,20-dione]	1.3 ± 0.2	1.1 ± 0.4		
C[C@]12CCC(=O)C[C@H]1CC[C@@H]1[C@@H]2CC[C@]2(C)[C@@H](C(=O)CO)CC[C@@H]12 [5β-CORT, 21-Hydroxy-5β-pregnane-3,20-dione]	1.3 ± 0.3	1.1 ± 0.4		1.0 ± 0.2
C[C@]12CCC(=O)C=C1CC[C@@H]1[C@@H]2CC[C@@]2(C)[C@H]1CC[C@]2(O)C(=O)CO [11-Deoxycortisol, 17α,21-Dihydroxypregn-4-ene-3,20-dione]	1.3 ± 0.3	1.3 ± 0.5		
C[C@]12CC[C@H]3[C@@H](CCC4=CC(=O)CC[C@@]43C)[C@@H]1CC[C@@H]2C(=O)CO [11-deoxy-CORT, 21-Hydroxypregn-4-ene-3,20-dione]	1.3 ± 0.4	1.3 ± 0.2		
C[C@]12CC[C@H](O)CC1=CCC1C2CC[C@@]2(C)C1CC[C@]2(O)C(=O)CO (stereo partly drawn) [17α,21-diOH-PREG, 3β,17α,21-Trihydroxypregn-5-en-20-one]	0.8 ± 0.1	1.3 ± 0.2		2.1 ± 0.4
C[C@]12C[C@H](O)[C@H]3[C@@H](CCC4=CC(=O)CC[C@@]43C)[C@@H]1CC[C@@H]2C(=O)CO [CORT, 11β,21-Dihydroxypregn-4-ene-3,20-dion]	0.7 ± 0.1	1.4 ± 0.2		
C[C@]12CCC(=O)C=C1CC[C@@H]1[C@@H]2[C@@H](O)C[C@@]2(C)[C@H]1CC[C@]2(O)C(=O)CO [Cortisol, 11β,17α,21-Trihydroxypregn-4-ene-3,20-dione]	0.9 ± 0.2	1.0 ± 0.3		
C[C@]12CCC(=O)C=C1CC[C@@H]1[C@@H]2C(=O)C[C@@]2(C)[C@H]1CC[C@]2(O)C(=O)CO [Cortisone, 17α,21-Dihydroxypregn-4-ene-3,11,20-trione]	1.3 ± 0.5	1.2 ± 0.5		
